{"sequences": {"note": "Sequences of proteins named here, by UniProt entry; tags and fusion partners are left off. A change or cut given only in a name is not applied to a line headed by its entry.", "UniProt P51450": "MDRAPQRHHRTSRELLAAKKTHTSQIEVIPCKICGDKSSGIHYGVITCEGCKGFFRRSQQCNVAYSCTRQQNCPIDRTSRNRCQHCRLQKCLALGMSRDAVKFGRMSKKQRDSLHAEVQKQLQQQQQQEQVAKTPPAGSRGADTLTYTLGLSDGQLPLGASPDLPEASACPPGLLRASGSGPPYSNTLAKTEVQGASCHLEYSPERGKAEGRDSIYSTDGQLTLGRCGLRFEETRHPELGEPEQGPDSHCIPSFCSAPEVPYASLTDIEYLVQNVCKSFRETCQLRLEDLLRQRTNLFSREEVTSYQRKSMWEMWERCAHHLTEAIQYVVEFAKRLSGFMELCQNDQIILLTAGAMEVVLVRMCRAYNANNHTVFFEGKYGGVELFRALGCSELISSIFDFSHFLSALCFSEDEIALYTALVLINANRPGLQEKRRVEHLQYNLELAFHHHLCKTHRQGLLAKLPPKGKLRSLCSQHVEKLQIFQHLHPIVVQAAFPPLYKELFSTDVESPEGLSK"}, "source": "PubChem BioAssay AID2551", "about": "(National Center for Advancing Translational Sciences (NCATS), 2010)", "note": "The campaign covered roughly 310,000 compounds. About 17,000 (5.5%) were called active. The inconclusive results got no clear call from the source; some entries with a clear call stand among them for comparison. Calls follow the shape of the dose curve; as a rule, active = well fitted inhibition curve with a large enough effect; inconclusive = small, poorly fitted or top-dose-only effect, or effect the other way; inactive = no such curve, though single readings can be large or run the other way. Potencies of inconclusive entries are doubtful fits and often do not repeat. % is scaled to controls: 0 for no effect and ±100 for the full control effect; potency is read from the fitted curve at half-maximal effect."}
{"target": "Nuclear receptor ROR-gamma (Mus musculus) (UniProt P51450)", "assay": "qHTS for inhibitors of ROR gamma transcriptional activity; also: nearly all actives have a fitted effect of over 60% in size", "conditions": "Drosophila S2 Gal4-RORgamma UAS-luciferase reporter, 20 h; activity change, negative = inhibition: at 53.6 µM (top of the series)", "how_it_was_run": "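Drosophila S2 cells stably expressing Gal4-DBD/mouse RORγ fusion under metallothionein promoter plus UAS-luciferase; compound 1 h, then 700 uM CuSO4 induction for 20 h at ambient temperature; inhibition read as reduced luminescence.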"}
{"smiles": "CCCCNC(=O)c1onc(CSc2ccc(F)c(F)c2)c1C(=O)O", "Potency": "inactive"}
{"smiles": "CCn1c(SCC(=O)Nc2ccc(Cl)cc2)nc2nc3c(cc2c1=O)CCCC3", "Potency": "active: 14.1 µM"}
{"smiles": "Cn1c(/N=C/c2ccc3c(c2)OCO3)nc2ccccc21", "Potency": "inactive"}
{"smiles": "CCNc1nc(NCC)n2c(SCC(=O)NCC3CCCCC3)nnc2n1", "Potency": "inconclusive: 20 µM [activator, single point]"}
{"smiles": "Oc1ccc(-c2cnns2)c(O)c1", "Potency": "inconclusive: 22.4 µM [inhibitor, single point]"}
{"smiles": "CCOc1ccc(NC(=O)Nc2ccccc2C(N)=O)cc1", "Potency": "inactive"}
{"smiles": "Nc1ccc(C(=O)N2N=C(c3ccccc3)CC2(O)C(F)(F)F)cc1", "note": "(configuration not stated)", "Potency": "active: 10 µM"}
{"smiles": "CN(C)c1ncc(/C=C2/C(=O)NC(=S)N(C3CCCCC3)C2=O)cn1", "Potency": "inactive"}
{"smiles": "C=CCn1c(-c2sccc2C)n[nH]c1=S", "Potency": "active: 10 µM"}
{"smiles": "COc1ccc(NS(=O)(=O)c2ccc(OCC(=O)N3CCOCC3)cc2)cc1Cl", "Potency": "inconclusive: 35.5 µM [activator, partial curve]"}
{"smiles": "CCn1cc(C(=O)NCCCN(C)C)c(=O)c2cc(F)c(N3CCN(C)CC3)cc21", "Potency": "inconclusive: 5.62 µM [inhibitor, partial curve]"}
{"smiles": "CCOC(=O)c1cnc(Nc2nc3ccccc3o2)nc1CSC(=S)N(CC)CC", "Potency": "active: 0.562 µM"}
{"smiles": "Cc1ccc(C(=O)N/C(=C\\c2ccc(F)cc2)C(=O)NCCN2CCOCC2)cc1", "Potency": "inactive"}
{"smiles": "CC(C)(C)N1C(=O)c2ccc(C(=O)Nc3ccc(-c4nc5ccccc5[nH]4)cc3)cc2C1=O", "Potency": "inactive"}
{"smiles": "COc1ccc(NC(=O)c2cc(C)nc3ccccc23)cc1S(=O)(=O)Nc1ccccc1Cl", "Potency": "inconclusive: 35.5 µM [activator, single point]"}
{"smiles": "COc1ccccc1NC(=S)NC1CCCCCC1", "Potency": "active: 6.31 µM"}
{"smiles": "O=[N+]([O-])c1cc(CN2CCCC2)c2cccnc2c1O", "Potency": "inconclusive: 35.5 µM [inhibitor, single point]"}
{"smiles": "O=C(Nc1ccccc1C(=O)O)c1cccc(NC(=O)c2ccc(Br)o2)c1", "Potency": "inconclusive: 3.16 µM [activator, single point]"}
{"smiles": "COC(CC(=O)NNC(=S)Nc1ccccc1)OC", "Potency": "inconclusive: 10 µM [inhibitor, partial curve]"}
{"smiles": "COc1ccccc1N1CCN(CC(=O)Nc2nccs2)CC1", "Potency": "inactive"}
{"smiles": "CCOC(=O)C(Cc1ccc(N)cc1)N1C(=O)c2ccccc2C1=O", "note": "(configuration not stated)", "Potency": "inconclusive: 10 µM [activator, partial curve]"}
{"smiles": "Cc1nc(NC(=O)CSc2nc3cccnc3n2Cc2ccccc2)sc1C", "Potency": "active: 12.6 µM"}
{"smiles": "O=C(CN1CCN(c2ccc(O)cc2)CC1)Nc1cc([N+](=O)[O-])ccc1Cl", "Potency": "inactive"}
{"smiles": "Cc1ccc(SCCNC(=O)c2ccc(CN3CCOCC3)cc2)cc1", "Potency": "inconclusive: 11.2 µM [activator, single point]"}
{"smiles": "CCCCC1NC(=S)N(C2CCCCC2)C1=O", "note": "(configuration not stated)", "Potency": "active: 12.6 µM"}
{"smiles": "COC(=O)c1c(NC(=O)c2ccco2)sc(C(=O)N(C)C)c1C", "Potency": "inconclusive: 6.31 µM [activator, single point]"}
{"smiles": "CC12C(=O)N(CCC(=O)O)C(=O)C1C1C=CC2C1", "note": "(configuration not stated)", "Potency": "inactive"}
{"smiles": "COc1ccc(CNc2oc(C)nc2C#N)cc1", "Potency": "inconclusive: 0.0045 µM [inhibitor, full curve, poor fit]"}
{"smiles": "COC(=O)C(=C/C(C)=C/c1cccs1)C(=O)OC", "Potency": "inconclusive: 28.2 µM [inhibitor, single point]"}
{"smiles": "COc1ccc(NC(=O)CC2SC(=O)NC2=O)cc1", "note": "(configuration not stated)", "Potency": "active: 11.2 µM"}
{"smiles": "CCOC(=O)c1c[nH]c(=S)n1C", "Potency": "active: 11.2 µM"}
{"smiles": "COc1cccc(/C=C2\\SC(=S)N(CCC(=O)NC3C=CS(=O)(=O)C3)C2=O)c1", "note": "(configuration not stated)", "Potency": "inactive"}
{"smiles": "CC(=O)/C(=N/Nc1ccc(Br)cc1)Sc1cccc2cccnc12", "Potency": "inconclusive: 2.51 µM [inhibitor, single point]"}
{"smiles": "Cc1cc(C)cc(NS(=O)(=O)c2ccc(Oc3ncc(C(F)(F)F)cc3Cl)cc2)c1", "Potency": "inconclusive: 35.5 µM [inhibitor, single point]"}
{"smiles": "O=C(NNC(=S)Nc1cccc(C(F)(F)F)c1)c1cccc(Cl)c1", "Potency": "inconclusive: 8.91 µM [inhibitor, partial curve]"}
{"smiles": "O=C(CCN1C(=O)[C@@H]2Cc3ccccc3CN2C1=O)N[C@@H](C(=O)O)c1ccccc1", "Potency": "inactive"}
{"smiles": "CC(=O)c1ccc(N2CCN(C(=S)Nc3ccccc3)CC2)cc1", "Potency": "inconclusive: 35.5 µM [inhibitor, single point]"}
{"smiles": "O=C(NCc1ccco1)C(c1ccco1)N(Cc1cccs1)C(=O)Cn1nnc2ccccc21", "note": "(configuration not stated)", "Potency": "inactive"}
{"smiles": "CCCn1c(C(C)Nc2nc(-c3ccc(Cl)c([N+](=O)[O-])c3)cs2)nc2cc(Cl)c(N3CCCCC3)cc21", "note": "(configuration not stated)", "Potency": "inconclusive: 1.41 µM [inhibitor, full curve]"}
{"smiles": "CCOc1ccc(C(=O)c2nc3c(n2O)CCCCC3)cc1", "Potency": "inconclusive: 35.5 µM [inhibitor, single point]"}
{"smiles": "CCOC(=O)C1=C(C)N(C)C(=S)NC1c1ccccc1", "note": "(configuration not stated)", "Potency": "active: 6.31 µM"}
{"smiles": "Cc1cc(C)cc(-n2c(C)cc(/C=N/NC(=O)CSc3ncccn3)c2C)c1", "Potency": "inconclusive: 35.5 µM [inhibitor, single point]"}
{"smiles": "Cc1ccccc1N1C(=O)C(Oc2ccc(Cl)cc2)C1CNC(C)(C)C", "note": "(configuration not stated)", "activity change, negative = inhibition": "inactive: 4.07% [at 10 µM]"}
{"smiles": "CCc1ccc(NC(=S)N2CCN(C)CC2)cc1", "Potency": "inconclusive: 11.2 µM [inhibitor, partial curve, poor fit]"}
{"smiles": "CCOC(=O)C1CCN(c2ccc(-c3cccs3)nn2)CC1", "Potency": "inactive"}
{"smiles": "Cc1cccc(-n2nnc(C(=O)NCc3ccc4c(c3)OCO4)c2N)c1", "Potency": "inconclusive: 20 µM [activator, single point]"}
{"smiles": "Cc1cc(C)cc(N(C(=O)c2csnn2)C(C(=O)NC2CCCC2)c2ccccn2)c1", "note": "(configuration not stated)", "Potency": "inactive"}
{"smiles": "COc1ccc(S(=O)(=O)n2nc(OC(C)=O)cc2N(C(C)=O)C(C)=O)cc1", "Potency": "inactive"}
{"smiles": "CC(=O)Nc1ccc(-c2csc(NCCc3ccccc3)n2)cc1", "Potency": "inconclusive: 22.4 µM [activator, partial curve]"}
{"smiles": "CCOc1ccc2nc(NC(=O)c3ccc(OCC4CCCO4)cc3)sc2c1", "note": "(configuration not stated)", "Potency": "inconclusive: 1.58 µM [activator, partial curve, poor fit]"}
{"smiles": "Oc1c(Cl)cc(Cl)cc1C=Nc1ccccc1N1CCCC1", "Potency": "active: 15.8 µM"}
{"smiles": "CCn1c(SCC(=O)Nc2nc3ccccc3s2)nc2c(c1=O)SC(C)C2", "note": "(configuration not stated)", "Potency": "inconclusive: 35.5 µM [activator, single point]"}
{"smiles": "CC1CCc2c(sc3[nH]c(=S)n(C)c(=O)c23)C1", "note": "(configuration not stated)", "Potency": "active: 0.562 µM"}
{"smiles": "Cc1cccc(NC(=O)c2cc3c([nH]c4ccccc43)c(C)n2)c1C", "Potency": "inconclusive: 14.1 µM [activator, single point]"}
{"smiles": "c1ccc(N2CCN(c3ccccc3)C2c2ccncc2)cc1", "Potency": "inconclusive: 35.5 µM [inhibitor, single point]"}
{"smiles": "FC(F)(F)c1nc(=S)c2ccccc2[nH]1", "Potency": "inactive"}
{"smiles": "CCOc1cc(C(=O)CSc2nnc(CNc3ccc(Cl)cc3)o2)ccc1NC(=O)CC", "Potency": "inconclusive: 31.6 µM [inhibitor, single point]"}
{"smiles": "COCCSc1nc2c(c(=O)[nH]c(=O)n2C)n1Cc1cccc(C)c1", "Potency": "inactive"}
{"smiles": "OCCNc1nc(NCCC2=CCCCC2)nc(N2CCOCC2)n1", "Potency": "inconclusive: 14.1 µM [activator, single point]"}
{"smiles": "O=C(/C=C/c1ccc(S(=O)(=O)N2CCOCC2)cc1)NC(=S)Nc1ccc(Cl)cc1Cl", "Potency": "active: 11.2 µM"}
{"smiles": "NC(=O)c1sc2nc(-c3ccccc3)ccc2c1N", "Potency": "inconclusive: 5.62 µM [activator, single point]"}
{"smiles": "Cc1cc2c(cc(C(=O)NCc3cccnc3)n2Cc2ccc(Cl)cc2)o1", "Potency": "inactive"}
{"smiles": "N/C(COc1ccc(Cl)cc1Cl)=N\\NS(=O)(=O)c1ccccc1", "Potency": "inconclusive: 25.1 µM [inhibitor, single point]"}
{"smiles": "CCOC(=O)c1csc(N/N=C2\\CCCc3ccccc32)n1", "Potency": "inconclusive: 35.5 µM [inhibitor, single point]"}
{"smiles": "CN(C)c1ccc(N2C(=O)CC(Nc3ccc(N4CCOCC4)cc3)C2=O)cc1", "note": "(configuration not stated)", "Potency": "inactive"}
{"smiles": "O=C1CSc2ccc(S(=O)(=O)N3CCN(c4ccccc4)CC3)cc2N1", "Potency": "inactive"}
{"smiles": "O=C(O)/C=C/C(=O)NNC(=O)c1ccc(Br)cc1", "Potency": "inconclusive: 12.6 µM [inhibitor, single point]"}
{"smiles": "Cc1ccc(/C(O)=C2/C(=O)C(=O)N(c3ccccn3)C2c2cccc([N+](=O)[O-])c2)cc1", "note": "(configuration not stated)", "Potency": "inconclusive: 35.5 µM [activator, single point]"}
{"smiles": "Cc1cc(C)nc(Sc2ccc3nnc(C(F)(F)C(F)(F)C(F)(F)F)n3n2)n1", "Potency": "inactive"}
{"smiles": "CC1Cn2c(nnc2-c2cc3ccccc3cc2O)S1", "note": "(configuration not stated)", "Potency": "inconclusive: 20 µM [inhibitor, single point]"}
{"smiles": "COc1ccc(Cc2nnc(SCc3c(C)noc3C)n2C2CCCCC2)cc1OC", "Potency": "inactive"}
{"smiles": "CC(=O)c1c(C)[nH]c(C(=O)OCC(=O)N2CCN(S(=O)(=O)c3ccc(C)cc3C)CC2)c1C", "Potency": "inactive"}
{"smiles": "CC(OC(=O)c1ccc2ncsc2c1)C(=O)NCc1ccccc1", "note": "(configuration not stated)", "Potency": "inconclusive: 0.0631 µM [inhibitor, full curve]"}
{"smiles": "Cc1cccc2nc(COc3ccc4ccccc4c3Br)cn12", "Potency": "active: 8.91 µM"}
{"smiles": "COc1cc(OC)cc(-c2cc3nc(C)cc(N4CCN(C(=O)c5ccco5)CC4)n3n2)c1", "Potency": "inconclusive: 22.4 µM [inhibitor, single point]"}
{"smiles": "CN(C(=S)NC(=O)c1ccc(Br)o1)c1ccccc1", "Potency": "inconclusive: 25.1 µM [inhibitor, single point]"}
{"smiles": "COc1ccc(Cl)cc1NC(=S)N1CC(C)OC(C)C1", "note": "(configuration not stated)", "Potency": "inactive"}
